Data from PubChem BioAssay AID504834 (National Center for Advancing Translational Sciences (NCATS), 2011).
Hit rate of the full screen: of about 320,000 compounds, about 22,000 (6.9%) were called active. Inconclusive means that the source gave no clear call. Such entries were picked first, then a sample of the others. The call rests on the fitted dose curve; in most records, active means well fitted inhibition curve with a large enough effect; inconclusive means small, poorly fitted or top-dose-only effect, or another doubt; inactive means no such curve, though single readings can be large or run the other way. A potency beside an inconclusive call is a rough fit, not a confirmed value.

Test: Primary qHTS for delayed death inhibitors of the malarial parasite plastid, 96 hour incubation
Conditions: P. falciparum luciferase reporter growth; series mostly up to 28.7 µM; activity change, negative = inhibition: at the top concentration
Outline: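 Plates of compound plus infected erythrocytes (2% hematocrit, 0.05% parasitemia final) incubate 96 hours, 37 C, 5% CO2. Detection reagent added; reduced luminescence from the parasites' luciferase reporter flags inhibition.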
On the % scale 0 is the no-effect control and ±100 the full control effect; potency means the concentration at half of the fitted maximal effect.

SMILES	activity change, negative = inhibition	Potency
CC(=O)c1ccc(N/N=C2/CCCNC2=O)cc1	inactive: -10.1%	
Cc1cc(C)nc(SCc2cn3c(C)cc(C)nc3n2)n1		inconclusive: 9.28 µM [inhibitor, partial curve]
Cc1cccc(N2CCN(C(=O)c3cccc(S(=O)(=O)N4CCOCC4)c3)CC2)c1C		inconclusive: 11.7 µM [inhibitor, single point]
CCN(CC)C(=O)c1ccc(Oc2ccc([N+](=O)[O-])cc2Cl)cc1		inconclusive: 0.657 µM [inhibitor, full curve, poor fit]
Cc1ccccc1N1CCN(S(=O)(=O)Cc2ccccc2)CC1		inconclusive: 11.7 µM [inhibitor, single point]
Cc1onc(-c2ccccc2)c1C(=O)Nc1cccc(OC(C)C)c1		active: 13.1 µM
O=C(c1cccc(N2C(=O)C3C4C=CC(C4)C3C2=O)c1)N1CCCc2ccccc21 (stereo not drawn)		inconclusive: 13.1 µM [inhibitor, single point]
CC(C)c1ccc(CCNC(=O)c2ccc([N+](=O)[O-])cc2)cc1		inconclusive: 18.5 µM [inhibitor, single point]
O=c1cc(-c2ccccc2F)oc2ccccc12	inactive: 356%	
CC1CCCN(C(=O)Cn2c(=O)oc3cc(S(=O)(=O)N4CCCCC4)ccc32)C1 (stereo not drawn)		inconclusive: 9.28 µM [inhibitor, single point]
C(#Cc1ccccc1)CN1CCOCC1	inactive: 26.4%	
COc1cc(/C=N/NC(=O)c2ccncc2)ccc1OC(C)=O		inconclusive: 14.7 µM [inhibitor, single point]
O=C(Cc1ccc(Cl)cc1)c1c[nH]c(C(=O)NCCCN2CCOCC2)c1	inactive: -6.92%	
COc1cccc(/C=C/c2ccc3cccc(O)c3n2)c1	inactive: 24.3%	
Cc1ccc(S(=O)(=O)NCCCCCC(=O)Nc2ccccc2C)cc1		inconclusive: 13.1 µM [inhibitor, single point]
O=C(NCc1cccs1)C1CCC(CNS(=O)(=O)c2ccc(Br)s2)CC1 (stereo not drawn)		active: 7.38 µM
Clc1cccc(C2Nc3cccc4cccc(c34)N2)c1Cl		inconclusive: 8.28 µM [inhibitor, partial curve]
O=c1c2ccccc2nc(SCCN2CCCCC2)n1CCc1ccccc1	inactive: 18.9%	
COc1ccc(OCC(=O)NCCCCCCNC(=O)COc2ccc(OC)cc2)cc1		active: 2.94 µM
COc1cccc(CNC(=O)C2CCCN(S(C)(=O)=O)C2)c1 (stereo not drawn)	inactive: 18.4%	
Cn1c(CO)cnc1SCC(=O)c1ccc(Br)cc1	inactive: 7.62%	
CC(C)(C)OC(=O)CNC(=O)c1[nH]cnc1C(=O)NC(c1ccccc1)c1ccccc1		inconclusive: 18.5 µM [inhibitor, single point]
O=c1c2sccc2n(Cc2cc(=O)n3ccccc3n2)c(=O)n1-c1ccccc1		active: 4.65 µM

SMILES	activity change, negative = inhibition	Potency
CCOc1cc(/C=N/O)cc(Cl)c1OC		inconclusive: 3.7 µM [inhibitor, partial curve, poor fit]
O=CN1CCN(C(=O)COc2ccc(Cl)cc2Br)CC1	inactive: 7.04%	
COc1ccc(/C=C2/C(=O)NC(=S)N(C3CC3)C2=O)cc1CN1C(=O)c2ccccc2C1=O		inconclusive: 18.5 µM [inhibitor, single point]
O=[N+]([O-])c1ccc(/C=N/Nc2nc(N3CCCCCC3)nc(N3CCCCCC3)n2)o1		inconclusive: 18.5 µM [inhibitor, single point]
CCOc1ccc(Nc2nnc(SCc3nc4ccccc4c(=O)[nH]3)s2)cc1		inconclusive: 8.28 µM [inhibitor, partial curve, poor fit]
Cc1ccc(C(=O)NCC(=O)N(C)CC(=O)Nc2ccccc2Br)s1	inactive: 29%	
O=C1NCCCc2nc(Oc3ccccc3)sc21		inconclusive: 18.5 µM [inhibitor, single point]
COC(=O)[C@@H]1CC2=CC(=O)CC[C@]2(C)[C@@]23O[C@@H]2C[C@@]2(C)[C@@H](CC[C@@]24CCC(=O)O4)[C@H]13		inconclusive: 8.49 µM [inhibitor, single point]
CN(C)S(=O)(=O)c1cccc(NC(=O)c2cc(=O)[nH]c3ccccc23)c1	inactive: 10.8%	
CCC(C)(C)NC(=O)C(c1ccc(OC)cc1)N(Cc1ccccc1)C(=O)CCC(=O)Nc1cc(C)on1 (stereo not drawn)		inconclusive: 0.465 µM [inhibitor, full curve, poor fit]
COC(=O)CSc1nnc(-c2ccco2)o1	inactive: 6.39%	
Cc1ccc(-c2nc3[nH]c(=O)cc(NC(=O)c4cccs4)n3n2)cc1		inconclusive: 0.262 µM [inhibitor, full curve]
CC(NC(=O)c1ccc(Cl)cc1)c1nnc(SCC(=O)NC2=NCCS2)n1C (stereo not drawn)		inconclusive: 6.57 µM [inhibitor, partial curve, poor fit]
COc1ccc(-c2cc([N+](=O)[O-])ccc2OCC(=O)N(C)CC(=O)Nc2ccc(C)cc2)cc1		active: 9.28 µM
Cn1cc(CN2CCC(n3nccc3NC(=O)c3ccccc3Cl)CC2)c2ccccc21		inconclusive: 18.5 µM [inhibitor, single point]
N#CC1(C#N)[C@@H](C(=O)C23CC4CC(CC(C4)C2)C3)C12CCOCC2	inactive: 27.4%	
CC(=O)N(Cc1cc2cc(C)c(C)cc2n2nnnc12)CC1COCCO1 (stereo not drawn)		active: 2.94 µM
O=C(Nc1ccccc1Cl)N1CCN(c2ccc3nnc(-c4ccccc4)n3n2)CC1		inconclusive: 6.57 µM [inhibitor, partial curve, poor fit]
Cc1nc(CSc2nnc(N)s2)cs1		inconclusive: 11.7 µM [inhibitor, partial curve]
CN(C)CCCN(C(=O)COc1ccccc1)c1nc2c(Cl)cccc2s1	inactive: 50.2%	
CC(C(=O)Nc1ccccc1)c1ccc(-c2ccccc2)c(F)c1 (stereo not drawn)		inconclusive: 18.5 µM [inhibitor, single point]
CS(=O)(=O)N(CC(=O)NCc1ccncc1)c1ccc(Cl)c(Cl)c1		inconclusive: 20.8 µM [inhibitor, partial curve, poor fit]
COc1ccc(C(=O)CN2C(=O)NC3(CCCc4ccccc43)C2=O)c(OC)c1 (stereo not drawn)		inconclusive: 6.57 µM [inhibitor, partial curve]

SMILES	activity change, negative = inhibition	Potency
O=c1[nH]c(-c2ccc(F)cc2)nc2c1sc(=S)n2-c1ccccc1		inconclusive: 1.04 µM [inhibitor, full curve, poor fit]
CC(Nc1ccccc1CO)C(=O)Nc1cccc(Cl)c1Cl (stereo not drawn)		inconclusive: 0.117 µM [inhibitor, full curve, poor fit]
Cc1ccc(C)c(-c2nnc(NC(=O)c3ccc([N+](=O)[O-])o3)o2)c1		active: 9.28 µM
COC(=O)c1cc(=O)n(Cc2ccc(F)cc2)c(=NCc2ccc(F)cc2)s1		inconclusive: 0.415 µM [inhibitor, full curve, poor fit]
COc1ccc(C2=NN(CN3C(=O)C(=O)c4ccccc43)C(c3ccc(C)cc3)C2)cc1 (stereo not drawn)		inconclusive: 20.8 µM [inhibitor, single point]
O=C(N/N=C/c1ccc([N+](=O)[O-])o1)c1cc2c(ccc3ccccc32)o1		inconclusive: 0.415 µM [inhibitor, full curve, poor fit]
Cc1cc(Nc2ccc(C)c(C)c2)c2ccccc2n1		inconclusive: 14.7 µM [inhibitor, single point]
N#CC1=C(N)Oc2cc(N)ccc2C1c1ccccc1F (stereo not drawn)	inactive: 22.2%	
COC(=O)c1ccc(OCC2c3cc(OC)c(OC)cc3CCN2C(=O)C2CC2)cc1 (stereo not drawn)		inconclusive: 18.5 µM [inhibitor, single point]
O=C(O)COc1ccccc1/C=N/NC(=O)CSc1nnc(-c2ccc(Cl)cc2)n1C1CCCCC1		inconclusive: 0.104 µM [inhibitor, full curve, poor fit]
C[C@@H]1O[C@@H](O[C@H]2C[C@@H](O)[C@]3(CO)[C@H]4[C@H](O)C[C@]5(C)[C@@H](C6COC(=O)C6)CC[C@]5(O)[C@@H]4CC[C@]3(O)C2)[C@H](O)[C@H](O)[C@H]1O (stereo partly drawn)	inactive: -24.7%	
Cc1ccc(N(Cc2ccccc2)C(=O)c2cccc(S(=O)(=O)N3CCN(C)CC3)c2)cc1		inconclusive: 11.7 µM [inhibitor, single point]
CCn1c(SCC(=O)Nc2cc(C)ccc2C)nc2c(c1=O)SC(C)C2 (stereo not drawn)		inconclusive: 13.1 µM [inhibitor, partial curve, poor fit]
CCOc1ccccc1C1C2C(=O)N(c3ccccc3)C(=O)C2ON1c1ccccc1 (stereo not drawn)	inactive: -2.17% [at 5.75 µM]	
CCOC(=O)c1c(C(F)(F)F)cc(-c2ccc(F)cc2)nc1C		inconclusive: 16.5 µM [inhibitor, single point]
Cc1cc(C)n(-c2ccnc3cc(Cl)ccc23)n1	inactive: 6.33%	
CCC1CCCCN1CCCNC(=O)CC1Oc2ccccc2NC1=O (stereo not drawn)		inconclusive: 0.928 µM [inhibitor, partial curve, poor fit]
CC(C)CN(C(=O)COC(=O)Cc1c[nH]c2ccccc12)c1c(N)n(Cc2ccccc2)c(=O)[nH]c1=O		inconclusive: 0.131 µM [inhibitor, full curve, poor fit]
Cc1cccc(C(=O)OCc2cncs2)c1	inactive: -0.553%	
COc1cc(C(=O)NCCc2ccc3c(c2)OCCO3)ccc1OCC(=O)N1CCOCC1		inconclusive: 13.1 µM [inhibitor, single point]
Cn1c(N/N=C2\CCCc3ccccc32)nc2c1c(=O)n(Cc1ccc(F)cc1)c(=O)n2C		inconclusive: 2.94 µM [inhibitor, partial curve]
COc1ccc(NS(=O)(=O)c2ccc3c(c2)N(C(C)=O)CC(C)S3)c(OC)c1 (stereo not drawn)		inconclusive: 18.5 µM [inhibitor, single point]

A draw from above in order of number of heavy atoms, smallest number first:
SMILES	activity change, negative = inhibition	Potency
Cc1nc(CSc2nnc(N)s2)cs1		inconclusive: 11.7 µM [inhibitor, partial curve]
Cc1ccc(-c2nc3[nH]c(=O)cc(NC(=O)c4cccs4)n3n2)cc1		inconclusive: 0.262 µM [inhibitor, full curve]
Cc1ccc(N(Cc2ccccc2)C(=O)c2cccc(S(=O)(=O)N3CCN(C)CC3)c2)cc1		inconclusive: 11.7 µM [inhibitor, single point]
